{"source": "PubChem BioAssay AID686943 (Drosophila RNAi Screening Center, 2013)", "aim": "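Knockdowns that increase or decrease active ERK after insulin receptor stimulation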 (primary screen)", "system": "Drosophila S2R+ haemocyte-like cells expressing YFP-tagged ERK (Rolled)", "reagent": "long dsRNA against Drosophila genes", "challenge": "insulin stimulation versus unstimulated cells; dose and duration not given", "measurement": "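Antibody staining for doubly phosphorylated ERK divided by ERK-YFP signal, as plate z-scores, in insulin-treated and untreated cells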", "scale": "replicate 1, z-score of dpERK with insulin and replicate 2, z-score of dpERK with insulin: higher = more active ERK per ERK-YFP after insulin", "note": "The screen tested about 23,000 reagents; below is a random part of those that have a named target and a result. 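Extra replicates exist only for a retested subset of genes; insulin dose and duration not given; both raised and lowered dpERK matter.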 Reagents against one gene are numbered here. Further read-outs or replicates are left out here. No sequences are given here. Not given: the amount of reagent, the time to read-out."}
{"gene":"FoxK","reagent no.":1,"replicate 1, z-score of dpERK with insulin":0.46,"replicate 2, z-score of dpERK with insulin":-0.54}
{"gene":"CG2444","reagent no.":1,"replicate 1, z-score of dpERK with insulin":-0.81,"replicate 2, z-score of dpERK with insulin":-0.61}
{"gene":"CG17593","reagent no.":1,"replicate 1, z-score of dpERK with insulin":0.36,"replicate 2, z-score of dpERK with insulin":0.35}
{"gene":"CG15336","reagent no.":1,"replicate 1, z-score of dpERK with insulin":0.3,"replicate 2, z-score of dpERK with insulin":1.18}
{"gene":"Ets65A","reagent no.":1,"replicate 1, z-score of dpERK with insulin":0.16,"replicate 2, z-score of dpERK with insulin":0.65}
{"gene":"Ets65A","reagent no.":2,"replicate 1, z-score of dpERK with insulin":-0.25,"replicate 2, z-score of dpERK with insulin":-0.89}
{"gene":"Ets65A","reagent no.":3,"replicate 1, z-score of dpERK with insulin":-0.64,"replicate 2, z-score of dpERK with insulin":1.13}
{"gene":"CG13337","reagent no.":1,"replicate 1, z-score of dpERK with insulin":-0.34,"replicate 2, z-score of dpERK with insulin":0.43}
{"gene":"CG4455","reagent no.":1,"replicate 1, z-score of dpERK with insulin":-0.6,"replicate 2, z-score of dpERK with insulin":-0.64}
{"gene":"CG4455","reagent no.":2,"replicate 1, z-score of dpERK with insulin":0.17,"replicate 2, z-score of dpERK with insulin":0.12}
{"gene":"Arv1","reagent no.":1,"replicate 1, z-score of dpERK with insulin":-0.39,"replicate 2, z-score of dpERK with insulin":1.78}
{"gene":"NimB4","reagent no.":1,"replicate 1, z-score of dpERK with insulin":0.67,"replicate 2, z-score of dpERK with insulin":-0.45}

Not a retest: 2 of the entries above.
{"gene":"Ets65A","reagent no.":3,"replicate 1, z-score of dpERK with insulin":-0.64,"replicate 2, z-score of dpERK with insulin":1.13}
{"gene":"CG13337","reagent no.":1,"replicate 1, z-score of dpERK with insulin":-0.34,"replicate 2, z-score of dpERK with insulin":0.43}
